Consider 28 substances from PMC4627417.

Sequences of proteins named here, by UniProt entry; tags and fusion partners are left off.
UniProt O00571: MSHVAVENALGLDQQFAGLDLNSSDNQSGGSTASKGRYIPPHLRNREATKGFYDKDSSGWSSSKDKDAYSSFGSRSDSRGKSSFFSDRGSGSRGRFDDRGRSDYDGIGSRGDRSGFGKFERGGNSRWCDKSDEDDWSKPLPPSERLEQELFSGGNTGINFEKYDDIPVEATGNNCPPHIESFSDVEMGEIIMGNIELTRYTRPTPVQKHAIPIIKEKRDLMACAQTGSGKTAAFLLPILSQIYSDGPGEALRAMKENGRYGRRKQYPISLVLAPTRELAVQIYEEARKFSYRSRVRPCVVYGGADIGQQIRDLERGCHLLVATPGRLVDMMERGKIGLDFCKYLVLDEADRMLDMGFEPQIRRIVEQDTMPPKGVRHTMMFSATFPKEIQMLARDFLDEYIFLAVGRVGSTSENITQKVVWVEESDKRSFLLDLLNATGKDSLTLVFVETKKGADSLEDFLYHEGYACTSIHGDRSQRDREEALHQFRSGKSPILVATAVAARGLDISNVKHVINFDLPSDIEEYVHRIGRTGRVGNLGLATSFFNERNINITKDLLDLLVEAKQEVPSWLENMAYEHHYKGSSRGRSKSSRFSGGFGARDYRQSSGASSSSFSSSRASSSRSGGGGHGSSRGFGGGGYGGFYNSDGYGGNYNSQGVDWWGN
UniProt P17844: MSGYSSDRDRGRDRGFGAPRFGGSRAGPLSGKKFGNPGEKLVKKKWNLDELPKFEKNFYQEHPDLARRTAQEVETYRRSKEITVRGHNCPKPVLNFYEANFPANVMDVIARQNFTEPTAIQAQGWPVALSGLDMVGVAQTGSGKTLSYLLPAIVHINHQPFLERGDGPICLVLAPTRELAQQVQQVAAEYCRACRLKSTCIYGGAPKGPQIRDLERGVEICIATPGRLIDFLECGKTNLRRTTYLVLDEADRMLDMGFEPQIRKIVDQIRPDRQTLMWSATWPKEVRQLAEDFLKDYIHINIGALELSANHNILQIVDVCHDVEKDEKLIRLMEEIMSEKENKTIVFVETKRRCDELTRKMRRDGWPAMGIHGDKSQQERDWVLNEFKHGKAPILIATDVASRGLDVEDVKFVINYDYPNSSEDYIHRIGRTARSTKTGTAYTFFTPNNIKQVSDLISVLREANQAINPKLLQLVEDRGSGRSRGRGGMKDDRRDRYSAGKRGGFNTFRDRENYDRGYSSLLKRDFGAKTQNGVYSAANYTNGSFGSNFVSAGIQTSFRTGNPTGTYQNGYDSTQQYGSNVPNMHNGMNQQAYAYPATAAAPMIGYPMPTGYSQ
UniProt Q92841: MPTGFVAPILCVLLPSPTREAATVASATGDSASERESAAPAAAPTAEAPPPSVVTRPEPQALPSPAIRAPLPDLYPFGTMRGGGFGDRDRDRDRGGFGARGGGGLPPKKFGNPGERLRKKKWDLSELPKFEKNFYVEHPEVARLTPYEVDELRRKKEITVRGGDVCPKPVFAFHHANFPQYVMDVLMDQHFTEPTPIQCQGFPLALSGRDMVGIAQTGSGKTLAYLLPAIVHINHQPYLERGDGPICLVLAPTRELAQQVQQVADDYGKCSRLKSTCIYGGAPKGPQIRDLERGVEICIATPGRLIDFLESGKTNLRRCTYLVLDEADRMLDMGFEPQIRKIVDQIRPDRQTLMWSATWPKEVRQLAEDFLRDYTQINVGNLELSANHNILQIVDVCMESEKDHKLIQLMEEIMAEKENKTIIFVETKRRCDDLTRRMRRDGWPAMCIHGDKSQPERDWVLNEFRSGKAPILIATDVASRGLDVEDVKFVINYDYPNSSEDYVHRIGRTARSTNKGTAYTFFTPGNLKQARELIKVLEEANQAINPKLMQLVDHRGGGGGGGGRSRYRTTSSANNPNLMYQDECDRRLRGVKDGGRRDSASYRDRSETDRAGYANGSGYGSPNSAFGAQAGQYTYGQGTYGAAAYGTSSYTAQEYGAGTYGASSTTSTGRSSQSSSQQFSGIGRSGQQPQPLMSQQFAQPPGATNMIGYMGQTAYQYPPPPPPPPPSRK
UniProt Q92785: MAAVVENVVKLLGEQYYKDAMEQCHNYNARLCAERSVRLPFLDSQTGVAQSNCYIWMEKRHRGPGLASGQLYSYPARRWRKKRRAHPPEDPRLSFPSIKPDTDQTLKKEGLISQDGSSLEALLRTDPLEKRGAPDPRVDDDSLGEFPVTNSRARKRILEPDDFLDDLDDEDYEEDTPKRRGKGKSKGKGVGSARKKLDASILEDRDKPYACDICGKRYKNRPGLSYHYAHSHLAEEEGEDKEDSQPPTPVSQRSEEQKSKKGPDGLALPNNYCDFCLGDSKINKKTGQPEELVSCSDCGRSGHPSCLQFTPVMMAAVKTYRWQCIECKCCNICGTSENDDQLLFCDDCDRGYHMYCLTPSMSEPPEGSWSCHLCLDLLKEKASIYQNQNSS
UniProt Q9UKV8: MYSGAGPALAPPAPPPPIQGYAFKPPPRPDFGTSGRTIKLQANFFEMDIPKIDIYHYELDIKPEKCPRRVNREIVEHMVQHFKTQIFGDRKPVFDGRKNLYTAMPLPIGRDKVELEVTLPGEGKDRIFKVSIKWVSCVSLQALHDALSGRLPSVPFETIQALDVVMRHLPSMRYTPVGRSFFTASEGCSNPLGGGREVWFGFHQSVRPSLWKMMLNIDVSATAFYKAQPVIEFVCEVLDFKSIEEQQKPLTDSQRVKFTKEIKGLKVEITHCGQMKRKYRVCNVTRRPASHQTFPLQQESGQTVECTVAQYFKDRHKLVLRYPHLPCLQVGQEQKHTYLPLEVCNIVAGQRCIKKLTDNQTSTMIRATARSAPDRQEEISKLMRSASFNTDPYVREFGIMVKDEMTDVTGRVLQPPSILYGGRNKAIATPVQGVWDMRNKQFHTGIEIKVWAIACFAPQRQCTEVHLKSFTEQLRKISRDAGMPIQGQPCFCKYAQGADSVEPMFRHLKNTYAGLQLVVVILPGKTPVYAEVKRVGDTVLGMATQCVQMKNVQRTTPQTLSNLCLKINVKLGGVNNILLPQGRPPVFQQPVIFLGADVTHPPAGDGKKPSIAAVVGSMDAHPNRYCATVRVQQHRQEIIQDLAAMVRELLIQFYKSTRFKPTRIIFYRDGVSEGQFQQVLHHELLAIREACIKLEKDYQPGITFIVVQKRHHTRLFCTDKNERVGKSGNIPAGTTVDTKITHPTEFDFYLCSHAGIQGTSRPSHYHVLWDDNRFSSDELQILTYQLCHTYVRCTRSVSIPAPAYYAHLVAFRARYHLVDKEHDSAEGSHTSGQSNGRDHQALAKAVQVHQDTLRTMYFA
UniProt Q02539: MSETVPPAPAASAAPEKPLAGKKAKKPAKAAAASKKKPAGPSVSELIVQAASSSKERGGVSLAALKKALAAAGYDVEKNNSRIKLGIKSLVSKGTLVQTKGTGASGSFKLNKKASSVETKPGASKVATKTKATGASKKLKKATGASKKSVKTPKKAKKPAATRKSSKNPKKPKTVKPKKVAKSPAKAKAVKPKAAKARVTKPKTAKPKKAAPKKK
UniProt P17096: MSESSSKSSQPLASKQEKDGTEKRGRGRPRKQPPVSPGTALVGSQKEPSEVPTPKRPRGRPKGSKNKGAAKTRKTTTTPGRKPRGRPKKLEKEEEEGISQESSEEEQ
UniProt Q14978: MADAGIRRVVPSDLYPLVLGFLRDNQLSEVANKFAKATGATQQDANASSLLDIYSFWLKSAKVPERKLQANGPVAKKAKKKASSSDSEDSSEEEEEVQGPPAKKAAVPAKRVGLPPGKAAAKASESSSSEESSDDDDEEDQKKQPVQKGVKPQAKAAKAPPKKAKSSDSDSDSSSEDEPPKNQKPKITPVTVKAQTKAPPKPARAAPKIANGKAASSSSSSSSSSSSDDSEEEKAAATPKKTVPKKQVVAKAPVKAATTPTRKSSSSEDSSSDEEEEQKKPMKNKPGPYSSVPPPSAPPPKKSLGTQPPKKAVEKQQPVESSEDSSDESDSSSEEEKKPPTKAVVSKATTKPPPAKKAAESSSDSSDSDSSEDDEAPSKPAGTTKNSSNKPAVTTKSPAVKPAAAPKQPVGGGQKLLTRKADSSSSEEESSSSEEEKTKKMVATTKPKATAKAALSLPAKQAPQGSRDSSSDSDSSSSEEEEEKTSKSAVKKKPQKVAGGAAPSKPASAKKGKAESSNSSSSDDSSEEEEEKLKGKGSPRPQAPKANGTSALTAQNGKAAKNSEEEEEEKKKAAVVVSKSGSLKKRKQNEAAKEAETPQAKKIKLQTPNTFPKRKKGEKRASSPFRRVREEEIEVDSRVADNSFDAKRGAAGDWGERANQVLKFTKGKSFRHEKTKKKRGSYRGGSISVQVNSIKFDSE
UniProt P05387: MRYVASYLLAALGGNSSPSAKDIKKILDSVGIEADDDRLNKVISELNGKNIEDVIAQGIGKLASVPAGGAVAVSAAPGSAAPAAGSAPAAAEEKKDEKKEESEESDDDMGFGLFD
UniProt Q92922: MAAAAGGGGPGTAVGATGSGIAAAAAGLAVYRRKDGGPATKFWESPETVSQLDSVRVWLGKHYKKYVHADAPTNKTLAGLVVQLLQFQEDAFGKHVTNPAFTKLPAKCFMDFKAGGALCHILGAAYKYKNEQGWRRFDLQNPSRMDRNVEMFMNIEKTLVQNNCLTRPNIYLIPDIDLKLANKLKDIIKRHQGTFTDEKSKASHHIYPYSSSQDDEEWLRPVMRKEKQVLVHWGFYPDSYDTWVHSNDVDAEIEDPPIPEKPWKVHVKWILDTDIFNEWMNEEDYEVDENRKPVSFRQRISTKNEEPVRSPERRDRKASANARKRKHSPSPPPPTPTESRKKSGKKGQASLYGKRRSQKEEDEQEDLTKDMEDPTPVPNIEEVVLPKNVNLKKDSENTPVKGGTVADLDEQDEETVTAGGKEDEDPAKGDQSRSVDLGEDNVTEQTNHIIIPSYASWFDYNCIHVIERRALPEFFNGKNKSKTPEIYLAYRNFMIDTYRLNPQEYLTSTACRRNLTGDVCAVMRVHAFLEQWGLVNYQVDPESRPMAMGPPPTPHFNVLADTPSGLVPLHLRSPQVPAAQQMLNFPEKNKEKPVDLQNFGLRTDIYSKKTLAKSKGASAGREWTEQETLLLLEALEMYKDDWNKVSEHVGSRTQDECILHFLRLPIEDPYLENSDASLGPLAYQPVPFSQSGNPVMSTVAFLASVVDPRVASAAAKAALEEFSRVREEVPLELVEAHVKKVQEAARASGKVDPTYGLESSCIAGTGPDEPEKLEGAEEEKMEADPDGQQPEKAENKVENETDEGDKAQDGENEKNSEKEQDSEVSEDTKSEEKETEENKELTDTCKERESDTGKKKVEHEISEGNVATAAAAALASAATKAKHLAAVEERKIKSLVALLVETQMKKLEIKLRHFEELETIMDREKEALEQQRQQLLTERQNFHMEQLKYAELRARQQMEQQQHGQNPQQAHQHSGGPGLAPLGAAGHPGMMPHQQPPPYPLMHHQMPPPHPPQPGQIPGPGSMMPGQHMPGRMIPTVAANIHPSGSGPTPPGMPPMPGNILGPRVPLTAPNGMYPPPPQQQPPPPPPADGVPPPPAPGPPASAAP
UniProt P08621: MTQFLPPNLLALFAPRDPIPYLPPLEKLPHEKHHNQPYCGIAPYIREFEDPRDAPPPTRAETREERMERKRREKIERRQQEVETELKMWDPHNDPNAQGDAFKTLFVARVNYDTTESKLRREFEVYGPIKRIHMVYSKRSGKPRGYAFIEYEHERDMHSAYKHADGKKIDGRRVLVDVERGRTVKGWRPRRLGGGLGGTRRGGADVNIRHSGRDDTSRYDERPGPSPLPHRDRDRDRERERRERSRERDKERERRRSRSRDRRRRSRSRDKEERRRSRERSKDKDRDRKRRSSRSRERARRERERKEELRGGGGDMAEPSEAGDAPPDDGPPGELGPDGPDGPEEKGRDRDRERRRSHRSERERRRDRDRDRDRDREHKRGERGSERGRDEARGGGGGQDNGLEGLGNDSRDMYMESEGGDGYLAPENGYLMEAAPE
UniProt P09012: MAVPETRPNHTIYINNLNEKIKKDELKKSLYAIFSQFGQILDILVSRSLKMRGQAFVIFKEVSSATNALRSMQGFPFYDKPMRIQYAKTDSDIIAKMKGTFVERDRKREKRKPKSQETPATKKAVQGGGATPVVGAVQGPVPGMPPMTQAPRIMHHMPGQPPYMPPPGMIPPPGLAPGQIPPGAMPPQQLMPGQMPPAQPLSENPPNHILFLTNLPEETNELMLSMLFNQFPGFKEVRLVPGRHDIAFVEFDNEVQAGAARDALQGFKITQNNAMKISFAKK
UniProt P62316: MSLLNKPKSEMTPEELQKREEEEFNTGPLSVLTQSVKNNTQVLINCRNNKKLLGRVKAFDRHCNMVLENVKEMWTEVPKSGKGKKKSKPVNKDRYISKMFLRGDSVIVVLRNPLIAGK
UniProt P62308: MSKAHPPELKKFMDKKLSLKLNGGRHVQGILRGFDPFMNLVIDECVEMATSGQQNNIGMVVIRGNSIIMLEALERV

Results are given in words; binding and its absence hold for the method and conditions named. In cells and extracts the contact can be indirect. These calls come from enrichment with a bait or labelling near it, and not all partners need be listed. Where a sequence is shown, tags or fusion partners need not be part of it.

The target of this test is 3XMyc-RPRD1B wild type (full length) (human) (UniProt Q9NQG5). Description: affinity purification with mass spectrometry; SILAC: tetracycline-induced 3XMyc-RPRD1B WT (heavy) and MT (light) in 293 Flp-In cells, anti-Myc immunoprecipitates from total lysate combined and analysed by MS.

As to CNOT1 (from UniProt A5YKK6 1-2376), the binding result is “binds”.
Consider DDX3X (from UniProt O00571 1-662), for which the binding entry is “binds”.
For “DDX5 (HEK293) (from UniProt P17844 1-614)”, the binding entry is recorded as “binds”.
Take DDX17 (from UniProt Q92841 1-729): the binding entry was “binds”.
The result for DPF2 (from UniProt Q92785 1-391) reads “binds”; that for EIF2C1 (from UniProt Q9UL18 1-857), “binds”.
As to EIF2C2 (from UniProt Q9UKV8 1-859), the binding result is given as “binds”.
Under EIF2C3 (from UniProt Q9H9G7 1-860) stands “binds”; under GTF2I (from UniProt P78347 1-998), “binds”; under HIST1H1A (from UniProt Q02539 1-215), “binds”.
HMGA1 (from UniProt P17096 1-107): the binding result is given as “binds”.
Under NOLC1 (from UniProt Q14978 1-699) stands “binds”; under NUP98 (from UniProt P52948 1-880), “binds”.
In the case of NUP153 (from UniProt P49790 1-1475), the binding entry is recorded as “binds”.
For PCBP1 (from UniProt Q15365 1-356), the binding entry is listed as “binds”.
With PCF11 (from UniProt O94913 1-1555), the binding entry was “binds”.
Regarding RPLP2 (from UniProt P05387 1-115), the binding entry was “binds”.
With RUVBL1 (from UniProt Q9Y265 1-456), the binding result is given as “binds”.
Consider SF3B3 (from UniProt Q15393 1-1217), for which the binding result was “binds”.
For SMARCC1 (from UniProt Q92922 1-1105), the binding result is recorded as “binds”.
For the substance SNRNP70 (from UniProt P08621 1-437), the binding entry is reported as “binds”.
Under SNRPA (from UniProt P09012 1-282) stands “binds”.
With SNRPD2 (from UniProt P62316 1-118), the binding result was “binds”.
As to SNRPG (from UniProt P62308 1-76), the binding result was “binds”.
For TNRC6B (from UniProt Q9UPQ9 1-1833), the binding entry is “binds”.
For the substance TNRC6C (from UniProt Q9HCJ0 1-1936), the binding entry is recorded as “binds”.
In the case of TP53 (from UniProt P04637 1-393), the binding result is recorded as “binds”.
As to ZNF638 (from UniProt Q14966 1-1978), the binding result was “binds”.
